Measurements taken from paper PMC11898301.
Where a chain is given by its changes, count along the chain named. Results are given in words; binding and its absence hold for the method and conditions named. In cells and extracts the contact can be indirect. Some entries that bind do so weakly or less than the wild type. Tags and fused reporters may be left off the sequences shown.

Sequences of proteins named here, by UniProt entry; tags and fusion partners are left off.
UniProt Q969H0: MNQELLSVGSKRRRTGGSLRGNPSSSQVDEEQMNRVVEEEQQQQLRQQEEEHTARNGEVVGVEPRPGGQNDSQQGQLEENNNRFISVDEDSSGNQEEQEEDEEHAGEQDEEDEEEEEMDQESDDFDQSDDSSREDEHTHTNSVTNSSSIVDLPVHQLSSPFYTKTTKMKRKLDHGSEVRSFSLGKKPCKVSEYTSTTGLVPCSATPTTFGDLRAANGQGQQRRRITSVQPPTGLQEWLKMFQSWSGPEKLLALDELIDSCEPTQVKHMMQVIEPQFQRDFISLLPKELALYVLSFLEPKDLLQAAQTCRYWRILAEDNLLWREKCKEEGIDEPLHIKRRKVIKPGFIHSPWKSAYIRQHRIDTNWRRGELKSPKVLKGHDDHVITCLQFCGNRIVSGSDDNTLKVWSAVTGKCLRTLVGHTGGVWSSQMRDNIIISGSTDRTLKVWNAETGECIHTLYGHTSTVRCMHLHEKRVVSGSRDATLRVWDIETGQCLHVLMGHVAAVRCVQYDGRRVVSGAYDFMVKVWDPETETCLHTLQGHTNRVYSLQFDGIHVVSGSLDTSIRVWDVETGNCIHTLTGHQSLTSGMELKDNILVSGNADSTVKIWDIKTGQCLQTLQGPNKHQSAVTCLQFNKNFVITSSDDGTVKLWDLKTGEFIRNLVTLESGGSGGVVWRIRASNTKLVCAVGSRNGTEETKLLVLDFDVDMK

Legend:
Assay in all cases: co-IP; 293T cells transfected with HA-PRR11 (WT, fragments or mutants) and Flag-GSK3β or Flag-FBXW7 (WT or mutants); MG132 10 μM for 6 h before collection; IP with HA or Flag antibody, Protein A/G magnetic beads, Western blot; in some panels λ-PPase added to extracts, CHIR-99021, siGSK3β or GSK3β overexpression
[1] = biological target: T1, HA-PRR11-1D (T287D/S291D) (human) (UniProt Q96HE9)
T1 sequence: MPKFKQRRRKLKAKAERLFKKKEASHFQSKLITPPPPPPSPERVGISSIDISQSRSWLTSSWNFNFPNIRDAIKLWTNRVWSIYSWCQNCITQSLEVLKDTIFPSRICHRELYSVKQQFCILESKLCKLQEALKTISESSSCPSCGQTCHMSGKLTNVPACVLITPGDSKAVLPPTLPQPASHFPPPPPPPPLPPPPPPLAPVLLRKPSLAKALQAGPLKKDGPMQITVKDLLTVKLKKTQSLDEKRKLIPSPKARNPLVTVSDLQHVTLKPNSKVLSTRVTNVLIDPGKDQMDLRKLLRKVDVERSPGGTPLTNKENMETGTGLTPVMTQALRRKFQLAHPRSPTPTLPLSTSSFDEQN

[2] = biological target: T2, HA-PRR11-2A (T326A/T330A) (human) (UniProt Q96HE9)
T2 sequence: T1 sequence with D287T, D291S, T326A, T330A

[3] = biological target: T3, HA-PRR11-1Δ (I286_S291del) (human) (UniProt Q96HE9)
T3 sequence: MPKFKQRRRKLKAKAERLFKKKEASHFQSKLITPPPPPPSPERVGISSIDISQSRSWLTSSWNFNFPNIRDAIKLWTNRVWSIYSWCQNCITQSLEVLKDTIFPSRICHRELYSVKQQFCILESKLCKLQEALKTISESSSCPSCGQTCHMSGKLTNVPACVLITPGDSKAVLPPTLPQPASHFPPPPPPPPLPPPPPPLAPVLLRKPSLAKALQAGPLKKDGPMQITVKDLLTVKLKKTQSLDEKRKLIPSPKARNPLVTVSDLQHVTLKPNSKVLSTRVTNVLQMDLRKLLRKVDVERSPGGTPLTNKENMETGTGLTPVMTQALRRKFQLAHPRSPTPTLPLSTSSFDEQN

[4] = biological target: T4, HA-PRR11 (amino acids 251-360) (human) (UniProt Q96HE9)
T4 sequence: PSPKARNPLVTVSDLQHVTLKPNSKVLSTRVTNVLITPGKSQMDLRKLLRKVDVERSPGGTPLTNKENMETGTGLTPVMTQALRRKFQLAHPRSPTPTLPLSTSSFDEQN

[5] = biological target: T5, HA-PRR11-1A (T287A/S291A) (human) (UniProt Q96HE9)
T5 sequence: T1 sequence with D287A, D291A

Measured: binding

Flag-FBXW7 (from UniProt Q969H0 1-707)
binds: [1] | [2] | [3] | [4] | [5]
